Data as given in PubChem BioAssay AID504793 (Drosophila RNAi Screening Center, 2011).
Aim: 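Whole-genome screen for parts of the DNA damage checkpoint at G2/M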 (primary screen). Cell system: Drosophila S2R+ cells. Knock-down reagent: long dsRNA against Drosophila genes, about 0.25 µg dsRNA per well. Duration: 4 days of dsRNA, then 4 hours of drug before read-out. Challenge: doxorubicin 0.5 µM for 4 hours to cause double-strand breaks, in cells also given a low, harmless dose of dsRNA against nbs to sensitise the assay. Read-out: 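Per-well count of mitotic cells stained for phospho-histone H3 after doxorubicin exposure, used as mitotic index; counts are raw and not normalised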. Direction: mitotic cells: higher = more cells in mitosis, weaker G2 arrest. Rule for the call: 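a call needs confirmation in secondary tests, with other dsRNAs and a check of mitotic timing without damage, not just a high primary count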. Meaning of the calls: active = confirmed in follow-up tests; inactive = not confirmed.
In all, the deposit lists about 23,000 reagents; this is an unselected part of those with a known target gene and a result. Over the whole deposit, 62 (0.27%) were called active. 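Calls come from follow-up tests whose scores are not deposited, so confirmed genes may have low counts here; counts are not normalised per plate.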 Raw values vary from plate to plate and are shown uncorrected. Names joined by + are all predicted targets of the reagent.

gene	dsRNA	mitotic cells, replicate 1	mitotic cells, replicate 2	call
CG1578	DRSC19729	5		inactive
CG1578	DRSC26369	6		inactive
CG18262	DRSC18149	13		inactive
CG18262	DRSC24242	5		inactive
CG5098	DRSC06915	7		inactive
CG5098	DRSC24664	14		inactive
Gabat (gamma-aminobutyric acid transaminase)	DRSC10846	5		inactive
Or59c (Odorant receptor 59c)	DRSC04633	4		inactive
CG7881	DRSC04898	10		inactive
CG18368	DRSC06731	8		inactive
jus (julius seizure)	DRSC23018	11		inactive
jus (julius seizure)	DRSC26804	9		inactive
HIPP1 (HP1 and insulator partner protein 1)	DRSC11748	4		inactive
HIPP1 (HP1 and insulator partner protein 1)	DRSC27992	12		inactive
CG9839	DRSC16574	5		inactive
CG2186	DRSC19838	9		inactive
CG2186	DRSC25389	2		inactive
Snp (Snipper)	DRSC04524	7		inactive
Snp (Snipper)	DRSC21538	5		inactive
Sprn (Spermitin)	DRSC10132	3		inactive
Vm26Aa (Vitelline membrane 26Aa)	DRSC03472	2		inactive
Vm26Aa (Vitelline membrane 26Aa)	DRSC25243	3		inactive
Prps (Phosphoribosyl pyrophosphate synthetase)	DRSC08994	8		inactive
Prps (Phosphoribosyl pyrophosphate synthetase)	DRSC10707	6		inactive
Prps (Phosphoribosyl pyrophosphate synthetase)	DRSC10708	3		inactive
CG3703	DRSC18172	13		inactive
CG3703	DRSC18173	14		inactive
CG3703	DRSC18643	11		inactive
Wsck	DRSC13682	14		inactive
Wsck	DRSC28781	6		inactive
CG11050	DRSC02125	12		inactive
CG11050	DRSC23562	5		inactive
slp1 (sloppy paired 1)	DRSC00835	11		inactive
slp1 (sloppy paired 1)	DRSC24204	8		inactive
CG1671	DRSC06617	12		inactive
CG42565	DRSC04154	4		inactive
CG5418	DRSC02857	3		inactive
CG5418	DRSC25643	9		inactive
CG15282	DRSC23090	16		inactive
CG15282	DRSC29233	6		inactive
Aps (Aps pyrophosphatase)	DRSC10629	10		inactive
CG32639	DRSC18972	13		inactive
Obp93a (Odorant-binding protein 93a)	DRSC15220	6		inactive
CG17930	DRSC15292	15		inactive
CG17930	DRSC28230	8		inactive
CG5611	DRSC15843	11		inactive
CG34376	DRSC14696	8		inactive
CG34376	DRSC14701	11		inactive
CG34376	DRSC24983	1		inactive
CG34376	DRSC25207	7		inactive
CG1698	DRSC06640	4		inactive
CG1698	DRSC24314	5		inactive
DCTN2-p50 (Dynactin 2, p50 subunit)	DRSC07132	33		inactive
S-Lap7 (Sperm-Leucylaminopeptidase 7)	DRSC06374	2		inactive
S-Lap7 (Sperm-Leucylaminopeptidase 7)	DRSC27414	6		inactive
CG15365	DRSC23021	12		inactive
Tsp42Ea (Tetraspanin 42Ea)	DRSC04982	5		inactive
Tsp42Ea (Tetraspanin 42Ea)	DRSC06792	2		inactive
Vm32E (Vitelline membrane 32E)	DRSC03474	8		inactive
Vm32E (Vitelline membrane 32E)	DRSC25156	7		inactive
Mst84Dd (Male-specific RNA 84Dd)	DRSC12600	5		inactive
Mst84Dd (Male-specific RNA 84Dd)	DRSC25596	7		inactive
D19A	DRSC11133	7		inactive
D19A	DRSC26967	4		inactive
DIP-zeta (Dpr-interacting protein zeta)	DRSC02203	4		inactive
DIP-zeta (Dpr-interacting protein zeta)	DRSC02204	10		inactive
DIP-zeta (Dpr-interacting protein zeta)	DRSC02205	4		inactive
icln	DRSC07630	7		inactive
icln	DRSC26232	3		inactive
CG15909	DRSC04977	7		inactive
CG3502 + CG9863	DRSC04578	3		inactive
mars	DRSC06656	38	14	inactive
wtrw (water witch)	DRSC14241	4		inactive
wtrw (water witch)	DRSC15278	5	13	inactive
wtrw (water witch)	DRSC29977	19		inactive
pros (prospero)	DRSC12856	12		inactive
pros (prospero)	DRSC17032	9		inactive
pros (prospero)	DRSC27593	8		inactive
CG6996	DRSC10758	4		inactive
vanin-like	DRSC17440	14		inactive
Pburs (Partner of Bursicon)	DRSC02483	2		inactive
CG5274	DRSC11774	8		inactive
CG7409	DRSC10842	4		inactive
CG7409	DRSC30043	10		inactive
RpS6 (Ribosomal protein S6)	DRSC18712	8		inactive
RpS6 (Ribosomal protein S6)	DRSC25010	8		inactive
Ice1 (Interacts with the C terminus of ELL 1)	DRSC04191	8		inactive
Ice1 (Interacts with the C terminus of ELL 1)	DRSC23585	10		inactive
MFS14 (Major Facilitator Superfamily Transporter 14)	DRSC06524	11		inactive
MFS14 (Major Facilitator Superfamily Transporter 14)	DRSC29787	6		inactive
gom (gomdanji)	DRSC04690	5		inactive
COX7C (Cytochrome c oxidase subunit 7C)	DRSC06831	15		inactive
tna (tonalli)	DRSC23236	9		inactive
tna (tonalli)	DRSC29530	8		inactive
alpha-Est9 (alpha-Esterase-9)	DRSC12621	4		inactive
CG42329	DRSC00373	8		inactive
CG42329	DRSC00682	10		inactive
Osi12 (Osiris 12)	DRSC12177	11		inactive
Arc42 (Activator-recruited cofactor subunit 42)	DRSC14340	14		inactive
Arc42 (Activator-recruited cofactor subunit 42)	DRSC15627	6		inactive
HnRNP-K (Heterogeneous nuclear ribonucleoprotein K)	DRSC07585	13		inactive
HnRNP-K (Heterogeneous nuclear ribonucleoprotein K)	DRSC22734	7		inactive
HnRNP-K (Heterogeneous nuclear ribonucleoprotein K)	DRSC24070	13		inactive
amon (amontillado)	DRSC13784	16		inactive
amon (amontillado)	DRSC16900	17	10	inactive
Eaf (ELL-associated factor)	DRSC05050	18		inactive
Eaf (ELL-associated factor)	DRSC06052	8		inactive
Eaf (ELL-associated factor)	DRSC22028	14		inactive
Eaf (ELL-associated factor)	DRSC27471	6		inactive
RpL21 (Ribosomal protein L21)	DRSC03704	4		inactive
CG14598	DRSC12541	4		inactive
CG14598	DRSC30074	2		inactive
Gmap (Golgi microtubule-associated protein)	DRSC19988	15		inactive
Gmap (Golgi microtubule-associated protein)	DRSC20057	10		inactive
Gmap (Golgi microtubule-associated protein)	DRSC29334	5		inactive
Fic (Fic domain-containing protein)	DRSC03247	10		inactive
CG14269	DRSC17912	3		inactive
CG2577	DRSC19863	7		inactive
CG2577	DRSC23309	10		inactive
CG2577	DRSC26322	3		inactive
AnxB10 (Annexin B10)	DRSC20677	1		inactive
AnxB10 (Annexin B10)	DRSC25182	5		inactive
CG13031	DRSC09911	5		inactive
Asph (Aspartyl beta-hydroxylase)	DRSC06783	6		inactive
Asph (Aspartyl beta-hydroxylase)	DRSC07171	8		inactive
Asph (Aspartyl beta-hydroxylase)	DRSC29507	2		inactive
Fatp (retired record)	DRSC03054	6		inactive
CG13251	DRSC11699	6		inactive
CG13251	DRSC27385	12		inactive
CG14757	DRSC06492	6		inactive
CG14757	DRSC25690	10		inactive
Psf2 (Partner of Sld Five 2)	DRSC00516	6		inactive
CG6972	DRSC16159	9		inactive
CG6972	DRSC29649	8		inactive
eya (eyes absent)	DRSC03510	6		inactive
CG34210	DRSC04579	5		inactive
CG32733 (retired record)	DRSC17481	2		inactive
CG32733 (retired record)	DRSC28689	2		inactive
dyw (daywake)	DRSC18228	12		inactive
dyw (daywake)	DRSC29300	1		inactive

Laid out differently: results already given.
| gene | dsRNA | mitotic cells, replicate 1 | mitotic cells, replicate 2 | call |
| --- | --- | --- | --- | --- |
| Wsck | DRSC13682 | 14 | – | inactive |
| Wsck | DRSC28781 | 6 | – | inactive |
| CG11050 | DRSC02125 | 12 | – | inactive |
| CG11050 | DRSC23562 | 5 | – | inactive |
| slp1 (sloppy paired 1) | DRSC00835 | 11 | – | inactive |
| slp1 (sloppy paired 1) | DRSC24204 | 8 | – | inactive |
| CG1671 | DRSC06617 | 12 | – | inactive |
